Data: paper PMC13546301

Chains of the proteins cited; added tags and fusions are not shown. Lines headed by an entry give the natural chain unless they say otherwise; changes in a name come on top. Residues count along the entry.
UniProt P61215: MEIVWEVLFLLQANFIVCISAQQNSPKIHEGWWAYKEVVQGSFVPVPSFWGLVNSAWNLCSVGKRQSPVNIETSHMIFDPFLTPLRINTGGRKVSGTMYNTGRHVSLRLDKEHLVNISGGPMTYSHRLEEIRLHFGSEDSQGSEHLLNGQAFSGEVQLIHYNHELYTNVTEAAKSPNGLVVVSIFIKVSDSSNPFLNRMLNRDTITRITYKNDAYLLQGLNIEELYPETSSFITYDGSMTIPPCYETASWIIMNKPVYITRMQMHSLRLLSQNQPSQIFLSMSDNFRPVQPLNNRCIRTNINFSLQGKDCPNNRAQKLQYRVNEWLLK
UniProt B0V2N1, residues 30-1907: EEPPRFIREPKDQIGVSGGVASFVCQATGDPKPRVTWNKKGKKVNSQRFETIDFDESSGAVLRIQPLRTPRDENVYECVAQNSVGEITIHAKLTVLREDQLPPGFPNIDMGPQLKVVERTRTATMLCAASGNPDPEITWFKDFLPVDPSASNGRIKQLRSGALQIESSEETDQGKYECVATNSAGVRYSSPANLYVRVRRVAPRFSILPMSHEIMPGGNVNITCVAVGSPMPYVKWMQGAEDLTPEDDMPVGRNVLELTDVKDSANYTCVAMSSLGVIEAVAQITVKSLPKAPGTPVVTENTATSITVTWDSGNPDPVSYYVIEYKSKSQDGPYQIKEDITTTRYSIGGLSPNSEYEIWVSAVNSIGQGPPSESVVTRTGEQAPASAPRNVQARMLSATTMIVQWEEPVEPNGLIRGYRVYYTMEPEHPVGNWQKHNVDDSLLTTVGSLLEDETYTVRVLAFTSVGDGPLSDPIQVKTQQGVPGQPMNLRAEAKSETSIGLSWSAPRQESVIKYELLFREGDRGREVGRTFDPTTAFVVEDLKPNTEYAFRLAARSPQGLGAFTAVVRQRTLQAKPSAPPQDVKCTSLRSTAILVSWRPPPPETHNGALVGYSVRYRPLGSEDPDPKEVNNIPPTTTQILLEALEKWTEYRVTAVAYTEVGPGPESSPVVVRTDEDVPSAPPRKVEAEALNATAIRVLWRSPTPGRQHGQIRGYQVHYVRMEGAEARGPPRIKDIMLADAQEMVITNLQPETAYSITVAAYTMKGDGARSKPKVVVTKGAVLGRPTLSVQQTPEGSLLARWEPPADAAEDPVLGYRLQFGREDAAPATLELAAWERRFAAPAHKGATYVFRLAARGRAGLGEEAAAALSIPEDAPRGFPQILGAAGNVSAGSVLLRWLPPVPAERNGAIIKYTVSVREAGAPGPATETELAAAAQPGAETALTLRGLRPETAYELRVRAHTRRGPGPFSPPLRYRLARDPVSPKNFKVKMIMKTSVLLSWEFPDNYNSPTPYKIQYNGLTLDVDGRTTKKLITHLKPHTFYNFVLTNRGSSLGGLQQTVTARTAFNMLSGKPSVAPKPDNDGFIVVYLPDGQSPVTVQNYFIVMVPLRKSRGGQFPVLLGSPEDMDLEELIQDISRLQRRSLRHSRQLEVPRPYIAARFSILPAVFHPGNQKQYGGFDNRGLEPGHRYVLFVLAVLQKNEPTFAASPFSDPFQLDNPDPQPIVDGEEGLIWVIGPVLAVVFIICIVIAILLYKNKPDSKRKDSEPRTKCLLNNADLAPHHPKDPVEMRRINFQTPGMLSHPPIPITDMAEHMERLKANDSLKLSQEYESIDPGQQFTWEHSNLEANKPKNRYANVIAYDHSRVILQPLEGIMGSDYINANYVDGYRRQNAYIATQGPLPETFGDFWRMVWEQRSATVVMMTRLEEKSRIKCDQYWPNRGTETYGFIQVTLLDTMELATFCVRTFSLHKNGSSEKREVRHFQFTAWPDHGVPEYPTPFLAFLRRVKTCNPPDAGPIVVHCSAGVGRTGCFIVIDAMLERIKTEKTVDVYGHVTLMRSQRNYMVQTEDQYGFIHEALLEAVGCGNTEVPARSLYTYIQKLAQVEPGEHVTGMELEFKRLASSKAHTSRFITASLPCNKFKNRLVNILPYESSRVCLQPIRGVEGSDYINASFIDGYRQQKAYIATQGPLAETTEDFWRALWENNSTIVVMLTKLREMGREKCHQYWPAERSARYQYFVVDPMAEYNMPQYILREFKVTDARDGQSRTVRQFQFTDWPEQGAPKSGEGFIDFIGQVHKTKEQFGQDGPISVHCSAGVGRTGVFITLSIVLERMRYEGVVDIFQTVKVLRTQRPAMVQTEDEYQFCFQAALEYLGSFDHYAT
UniProt D3Z7H4: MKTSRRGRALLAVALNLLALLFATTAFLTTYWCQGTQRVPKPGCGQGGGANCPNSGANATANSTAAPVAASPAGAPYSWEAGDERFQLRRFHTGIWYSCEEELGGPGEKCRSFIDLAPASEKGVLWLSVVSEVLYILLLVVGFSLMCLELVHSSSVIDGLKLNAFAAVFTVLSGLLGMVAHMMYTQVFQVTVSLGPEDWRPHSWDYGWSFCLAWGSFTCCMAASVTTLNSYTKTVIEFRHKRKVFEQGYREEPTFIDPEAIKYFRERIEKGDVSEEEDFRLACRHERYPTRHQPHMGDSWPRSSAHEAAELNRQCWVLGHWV
UniProt Q9Z2W9, residues 23-888: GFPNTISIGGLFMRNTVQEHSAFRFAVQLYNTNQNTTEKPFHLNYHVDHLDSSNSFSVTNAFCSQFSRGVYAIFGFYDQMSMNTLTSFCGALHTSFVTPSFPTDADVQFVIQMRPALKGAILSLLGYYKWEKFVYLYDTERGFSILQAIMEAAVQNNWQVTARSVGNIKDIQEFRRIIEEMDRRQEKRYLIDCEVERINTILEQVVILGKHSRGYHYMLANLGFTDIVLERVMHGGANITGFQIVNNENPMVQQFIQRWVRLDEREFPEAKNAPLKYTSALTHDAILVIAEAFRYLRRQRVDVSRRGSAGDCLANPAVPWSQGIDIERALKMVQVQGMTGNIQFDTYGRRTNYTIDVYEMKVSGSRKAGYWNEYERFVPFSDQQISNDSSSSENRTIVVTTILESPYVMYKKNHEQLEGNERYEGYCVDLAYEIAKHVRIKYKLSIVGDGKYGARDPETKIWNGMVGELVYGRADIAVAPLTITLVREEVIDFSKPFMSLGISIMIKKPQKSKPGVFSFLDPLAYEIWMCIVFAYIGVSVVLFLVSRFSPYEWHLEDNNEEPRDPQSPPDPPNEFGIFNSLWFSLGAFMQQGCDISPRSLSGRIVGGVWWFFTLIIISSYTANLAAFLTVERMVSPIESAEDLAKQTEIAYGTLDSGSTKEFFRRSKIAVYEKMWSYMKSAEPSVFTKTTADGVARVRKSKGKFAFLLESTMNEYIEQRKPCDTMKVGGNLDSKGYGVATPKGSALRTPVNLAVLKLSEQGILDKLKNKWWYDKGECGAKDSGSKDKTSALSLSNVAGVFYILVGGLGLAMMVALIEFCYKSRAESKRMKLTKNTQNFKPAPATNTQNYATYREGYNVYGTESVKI
UniProt O88998, residues 17-485: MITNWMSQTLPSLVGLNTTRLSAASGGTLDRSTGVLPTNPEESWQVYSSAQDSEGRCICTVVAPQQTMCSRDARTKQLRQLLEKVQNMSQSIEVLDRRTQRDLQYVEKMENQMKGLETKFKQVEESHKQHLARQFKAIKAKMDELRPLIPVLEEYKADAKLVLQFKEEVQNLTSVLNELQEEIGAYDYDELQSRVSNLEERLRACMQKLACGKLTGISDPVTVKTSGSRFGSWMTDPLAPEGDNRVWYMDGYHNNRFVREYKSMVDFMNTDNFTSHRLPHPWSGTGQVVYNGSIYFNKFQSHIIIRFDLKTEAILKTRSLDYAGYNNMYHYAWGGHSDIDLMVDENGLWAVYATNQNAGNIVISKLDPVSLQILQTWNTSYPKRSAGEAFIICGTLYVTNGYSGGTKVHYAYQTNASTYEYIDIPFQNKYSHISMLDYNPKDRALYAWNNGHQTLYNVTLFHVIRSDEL
UniProt Q8BSS9: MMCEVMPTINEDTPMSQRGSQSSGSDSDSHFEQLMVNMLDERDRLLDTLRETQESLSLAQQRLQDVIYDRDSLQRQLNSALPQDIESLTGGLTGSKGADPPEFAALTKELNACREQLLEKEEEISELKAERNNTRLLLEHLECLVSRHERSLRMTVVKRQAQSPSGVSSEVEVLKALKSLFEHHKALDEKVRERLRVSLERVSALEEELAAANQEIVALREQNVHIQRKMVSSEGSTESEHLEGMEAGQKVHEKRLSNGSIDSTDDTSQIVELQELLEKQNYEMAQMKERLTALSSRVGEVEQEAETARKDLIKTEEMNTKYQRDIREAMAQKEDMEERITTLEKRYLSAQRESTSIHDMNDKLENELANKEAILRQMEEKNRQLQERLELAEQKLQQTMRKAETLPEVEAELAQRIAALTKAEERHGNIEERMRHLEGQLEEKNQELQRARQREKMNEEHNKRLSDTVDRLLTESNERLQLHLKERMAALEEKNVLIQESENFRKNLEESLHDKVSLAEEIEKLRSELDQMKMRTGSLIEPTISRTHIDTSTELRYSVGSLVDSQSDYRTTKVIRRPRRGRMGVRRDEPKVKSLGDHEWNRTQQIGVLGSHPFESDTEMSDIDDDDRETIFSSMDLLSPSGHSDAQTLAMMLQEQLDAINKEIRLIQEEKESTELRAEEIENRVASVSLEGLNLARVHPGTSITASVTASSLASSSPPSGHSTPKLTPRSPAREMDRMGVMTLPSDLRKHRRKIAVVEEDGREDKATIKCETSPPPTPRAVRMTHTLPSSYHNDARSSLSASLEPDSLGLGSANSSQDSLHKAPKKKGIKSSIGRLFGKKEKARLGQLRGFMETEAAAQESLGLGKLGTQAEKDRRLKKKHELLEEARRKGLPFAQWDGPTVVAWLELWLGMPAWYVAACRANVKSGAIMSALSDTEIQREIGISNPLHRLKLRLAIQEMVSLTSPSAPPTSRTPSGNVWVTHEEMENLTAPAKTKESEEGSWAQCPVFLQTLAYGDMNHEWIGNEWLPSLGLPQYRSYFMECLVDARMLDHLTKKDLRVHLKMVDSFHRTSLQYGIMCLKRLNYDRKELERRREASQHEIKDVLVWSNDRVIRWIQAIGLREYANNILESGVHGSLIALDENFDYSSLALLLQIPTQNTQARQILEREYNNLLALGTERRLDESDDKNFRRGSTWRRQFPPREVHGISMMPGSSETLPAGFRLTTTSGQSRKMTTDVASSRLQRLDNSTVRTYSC

How the values were obtained:
[1] = target: Carbonic anhydrase-related protein 10 (mouse (endogenous in mouse brain)) (UniProt P61215); experiment: affinity purification with mass spectrometry; reverse meAP-MS with 1-4 antibodies per target against constituents of the NRX interactome (PTPRS, T178B, CAH10, NXPH3, TAFA1, LRRT4, anti-HA for HA-Cbln1/2 and others); solubilised mouse brain membrane fractions; target knock-outs, wild-type brains or IgGs as controls, tnR threshold 0.25
[2] = target: Receptor-type tyrosine-protein phosphatase S (mouse (endogenous in mouse brain)) (UniProt B0V2N1); experiment: as above
[3] = target: T1, Leucine-rich repeat transmembrane neuronal protein 4 (mouse (endogenous in mouse brain)) (UniProt Q80XG9); experiment: as above
T1 sequence: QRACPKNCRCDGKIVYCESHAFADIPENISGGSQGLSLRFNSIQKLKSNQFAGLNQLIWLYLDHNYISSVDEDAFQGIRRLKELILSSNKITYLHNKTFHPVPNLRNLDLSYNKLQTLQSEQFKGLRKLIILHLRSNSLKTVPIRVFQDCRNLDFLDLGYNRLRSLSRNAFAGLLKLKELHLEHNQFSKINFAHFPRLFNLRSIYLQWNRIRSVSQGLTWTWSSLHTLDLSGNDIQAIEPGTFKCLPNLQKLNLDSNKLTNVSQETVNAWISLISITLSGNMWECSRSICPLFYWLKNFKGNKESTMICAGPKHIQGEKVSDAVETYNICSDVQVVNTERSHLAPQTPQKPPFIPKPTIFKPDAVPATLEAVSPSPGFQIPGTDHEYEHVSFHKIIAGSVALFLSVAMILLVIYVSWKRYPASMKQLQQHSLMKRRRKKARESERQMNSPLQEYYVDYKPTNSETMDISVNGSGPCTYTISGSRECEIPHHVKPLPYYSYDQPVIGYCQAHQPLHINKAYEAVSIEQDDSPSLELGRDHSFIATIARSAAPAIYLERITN

[4] = target: Receptor-type tyrosine-protein phosphatase S (mouse (endogenous in mouse brain)) (UniProt B0V2N1); experiment: affinity purification with mass spectrometry; APs with anti-NRX1-3 and anti-PTPRS antibodies from solubilised ER-enriched membrane fractions of mouse brain
recombinant LRRT2 = target: T2, recombinant LRRT2 (UniProt O43300); experiment: affinity purification with mass spectrometry; 15 µg recombinant LRRT2 pre-coupled to protein A Dynabeads as affinity matrix; solubilised mouse brain membrane fractions; only the target purified
T2 sequence: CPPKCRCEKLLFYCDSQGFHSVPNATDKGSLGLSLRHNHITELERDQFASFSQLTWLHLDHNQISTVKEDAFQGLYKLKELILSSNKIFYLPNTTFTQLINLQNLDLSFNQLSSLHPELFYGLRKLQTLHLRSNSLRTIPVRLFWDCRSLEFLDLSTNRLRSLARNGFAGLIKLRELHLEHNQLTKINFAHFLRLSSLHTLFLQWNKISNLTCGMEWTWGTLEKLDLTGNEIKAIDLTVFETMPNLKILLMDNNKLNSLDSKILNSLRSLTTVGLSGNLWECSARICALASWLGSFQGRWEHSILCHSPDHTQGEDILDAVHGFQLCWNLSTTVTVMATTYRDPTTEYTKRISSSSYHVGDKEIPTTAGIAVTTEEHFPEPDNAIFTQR

[5] = target: T3, Neurexophilin-3 (mouse (endogenous in mouse brain)) (UniProt Q91VX5); experiment: affinity purification with mass spectrometry; reverse meAP-MS with 1-4 antibodies per target against constituents of the NRX interactome (PTPRS, T178B, CAH10, NXPH3, TAFA1, LRRT4, anti-HA for HA-Cbln1/2 and others); solubilised mouse brain membrane fractions; target knock-outs, wild-type brains or IgGs as controls, tnR threshold 0.25
T3 sequence: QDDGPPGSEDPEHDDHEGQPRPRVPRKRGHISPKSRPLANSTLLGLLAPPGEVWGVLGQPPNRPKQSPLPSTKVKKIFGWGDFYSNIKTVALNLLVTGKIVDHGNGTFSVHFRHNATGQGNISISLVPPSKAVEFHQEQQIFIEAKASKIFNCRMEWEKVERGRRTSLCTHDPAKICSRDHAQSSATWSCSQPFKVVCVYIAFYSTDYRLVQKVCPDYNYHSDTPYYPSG

Substance | binding [1] | binding [2] | binding [4] | other results
GSG1l (from UniProt D3Z7H4 1-322) | binds | binds | – | binding [3]: binds
Glutamate (AMPA-type) receptor 3, GluA3 (from UniProt Q9Z2W9 23-888) | binds | binds | – | –
Carbonic anhydrase-related protein 10 (from UniProt P61215) | – | – | binds | –
Cav2.2 (from UniProt O55017 1-2327) | – | – | binds | –
Transmembrane protein 178B (mouse (endogenous in mouse brain)) | – | – | – | binding (recombinant LRRT2): binds; binding [3]: binds; binding [5]: binds
NOE1 (from UniProt O88998 17-485) | binds | binds | – | –
liprin-α2 (from UniProt Q8BSS9 1-1257) | – | – | binds | –

No constants are given. Whether binding was seen depends on the method and setting. Binding seen in cells or lysates may run through a third protein. A yes stands for co-enrichment or nearness to the bait. Other partners may have been found.
